Experimental data taken from paper PMC2993942.
No constants are given. Whether binding was seen depends on the method and setting. In cells and extracts the contact can be indirect.

The chains behind the UniProt entries cited, without tags or fusion partners. Where a name states a change or a piece, a line headed by the entry shows the natural chain unless it says otherwise. A line that says so, or that is headed by a name, gives the form on record, which may keep a tag or linker.
UniProt Q16665: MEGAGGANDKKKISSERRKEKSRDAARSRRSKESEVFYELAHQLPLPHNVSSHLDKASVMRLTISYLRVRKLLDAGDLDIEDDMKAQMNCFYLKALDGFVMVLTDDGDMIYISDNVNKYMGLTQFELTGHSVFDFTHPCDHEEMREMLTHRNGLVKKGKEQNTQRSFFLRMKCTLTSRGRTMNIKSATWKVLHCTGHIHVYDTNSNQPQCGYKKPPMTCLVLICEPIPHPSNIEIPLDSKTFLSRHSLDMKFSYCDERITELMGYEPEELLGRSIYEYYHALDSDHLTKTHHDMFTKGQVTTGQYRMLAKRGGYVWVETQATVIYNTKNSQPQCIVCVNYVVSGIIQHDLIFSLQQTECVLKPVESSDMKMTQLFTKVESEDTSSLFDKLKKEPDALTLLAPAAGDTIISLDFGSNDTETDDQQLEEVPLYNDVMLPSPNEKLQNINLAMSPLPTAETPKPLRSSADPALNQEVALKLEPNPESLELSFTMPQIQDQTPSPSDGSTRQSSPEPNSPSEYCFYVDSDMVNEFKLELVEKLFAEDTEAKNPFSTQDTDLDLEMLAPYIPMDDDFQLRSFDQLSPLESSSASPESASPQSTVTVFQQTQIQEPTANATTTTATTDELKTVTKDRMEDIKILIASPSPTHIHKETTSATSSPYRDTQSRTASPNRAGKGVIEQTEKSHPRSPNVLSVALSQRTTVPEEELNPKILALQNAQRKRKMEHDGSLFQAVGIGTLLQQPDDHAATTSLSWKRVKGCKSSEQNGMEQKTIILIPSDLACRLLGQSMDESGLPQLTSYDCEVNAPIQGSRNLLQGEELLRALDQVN
CHIP K30A c-myc (Q9UNE7-1, form named): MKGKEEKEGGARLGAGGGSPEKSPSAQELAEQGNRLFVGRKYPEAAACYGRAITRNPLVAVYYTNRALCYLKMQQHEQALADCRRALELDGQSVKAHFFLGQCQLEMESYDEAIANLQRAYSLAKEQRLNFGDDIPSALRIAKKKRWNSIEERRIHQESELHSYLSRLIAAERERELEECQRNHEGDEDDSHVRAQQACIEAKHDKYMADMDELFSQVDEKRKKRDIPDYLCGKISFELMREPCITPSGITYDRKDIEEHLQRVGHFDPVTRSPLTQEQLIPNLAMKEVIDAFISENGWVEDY

Molecular target: Hypoxia-inducible factor-1 alpha (HIF-1α) (human (endogenous in ARPE-19)) (UniProt Q16665)
Assay: co-IP; endogenous HIF-1α immunoprecipitated with anti-HIF-1α from lysates (0.5% NP-40, 150 mM NaCl, pH 7.4) of ARPE-19 cells transfected with c-myc CHIP constructs; cells treated with MG132 (20 µM) with or without MGO (3 mM, 40 or 70 minutes); blot for c-myc

For “CHIP K30A c-myc (from UniProt Q9UNE7-1 1-303) (enzyme)”, the binding was “no binding”.
